The results in this text go back to publication PMC10731091.

The series has as its target glycated albumin (GA + glycated human serum albumin) (UniProt P02768). Briefly: LSPR (plasmonic wavelength shift). As to conditions: GA 0.1-10 uM in flow, aptamer immobilised on Au, MCH/BSA blocked, shift saturates at about 1 uM, detection limit 0.1 uM; 5' amino C6; 3' thiol C6 SS; aptamer (5 uM) immobilised on Au-coated quartz, MCH and BSA blocking, GA in continuous flow; aptamer stock in Tris-EDTA-acetate buffer; assay buffer; single-stranded DNA.

The exact form of at least one protein or probe is not confirmed.

As for TGCGGTTGTAGTACTCGTGGCCG [GA aptamer], the binding result was “binds”.
